This assay can be described thus: IkB Signaling. The following applies: ABC-DLBCL IkBa-CBG/CBR dual luciferase ratio (green luciferase fused to IkBa over red control in OCI-Ly3 lymphoma cells), 4 h. The gist of the method:
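Luminescence ratio of IκBα-fused green versus native red beetle luciferase in OCI-Ly3 cells, 4 h post-doxycycline with compound; red signal alone, scaled from basal (0%) to zero light (-100%), flagged nonspecific or cytotoxic effects.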

[1] abbreviates: measured here: control luc red channel unless noted.
Setting [2] is: measured here: IkB-luc green channel.
Where [3] appears, read: measured here: control luc red channel.

62 molecules from PubChem BioAssay AID445 (National Center for Advancing Translational Sciences (NCATS), 2006) can be followed below.

Structures are written as SMILES. This is one part of the list. Shown are side measurements of this screen, not its main read-out; they come without a call. Compounds called inactive in the main read-out are mostly missing here. Potencies come from curve fits of mixed quality, noted in brackets.

One may read the AC50 as the concentration at which the activity in the assay is half-maximal. Take `COC(=O)c1c(-c2cccs2)csc1NC(=O)COc1ccccc1`: the AC50 under setting [1] is 2 µM [rising, partial curve].
`CC(CNC(=O)c1ccc(Nc2nc3ccccc3n3nnnc23)cc1)c1ccccc1` (stereo not given): the AC50 under setting [1] is 7.94 µM [falling, partial curve].
Still for that read-out and setting: the result for `CCC(C(=O)NCCc1ccc(SC)cc1)n1nc(C)c2c(C)n(-c3ccc(C)cc3)nc2c1=O` (stereo not given) reads 31.6 µM [falling, partial curve]; that for `COc1cc(C2CC(=O)N(CC(=O)Nc3ccccc3F)c3ccccc3S2)cc(OC)c1OC` (stereo not given), 20 µM [falling, partial curve]; that for `O=C(Nc1ccc(F)cc1F)c1cc(-c2ccc3c(c2)OCO3)on1`, 10 µM [falling, partial curve].
As to `Cc1cc(C)cc(OCc2ccc(C(=O)O)o2)c1`, the AC50 under setting [1] was 15.8 µM [falling, partial curve].
In the case of `Cc1ccc(CCNC(=O)c2ccc(CSc3nc4ccncc4n3Cc3ccc(F)cc3)cc2)cc1`, the concentration at half-maximal activity (AC50) under setting [1] was 12.6 µM [falling, partial curve].
Still for that read-out and setting: the result for `COC(=O)c1ccccc1NC(=O)CCc1c(C)nc2cc(-c3ccc(Cl)cc3)nn2c1C` reads 0.0251 µM [falling, full curve]; that for `Cc1cccc(OCC(=O)Nc2cccc(-c3nc4ccccc4s3)c2)c1`, 6.31 µM [falling, partial curve].
Same read-out and setting: the value for `CC(=O)c1cc(-c2ccc(F)cc2)n(CCC(=O)NC2CCCCC2)c1C` was 3.16 µM [rising, single point]; that for `Cc1cccc(N=c2oc3cc(O)ccc3cc2C(N)=O)c1` was 0.00794 µM [falling, full curve]; that for `CC(C)CNc1cc(NC2CCCCC2)c2c3c(onc13)-c1ccccc1C2=O` was 25.1 µM [falling, partial curve, poor fit].
For `Cc1ccc(Cl)cc1N1CCN(C(=O)c2cn(C)c3ccc(S(=O)(=O)N4CCCCC4)cc3c2=O)CC1`, the half-maximal activity concentration (AC50) under setting [1] is 20 µM [falling, single point].
As for `CSc1ccc(CCNC(=O)CCc2c(C)nc3c4cccnc4nn3c2C)cc1`, the AC50 under setting [1] was 20 µM [falling, partial curve].
As to `COc1cccc(CNCc2c(C(=O)O)c(C)n(Cc3ccc(F)cc3Cl)c2C)c1OC`, under setting [1], the AC50 was 25.1 µM [falling, single point].
Turning to `O=C(Nc1ccc(F)c(F)c1)c1ccc(F)c(S(=O)(=O)N2CCC3(CC2)OCCO3)c1`, the AC50 under setting [1] is 20 µM [falling, partial curve].
As for `CCSc1nc2sc3c(c2c(=O)n1-c1ccc(C)cc1)CCCC3`, the AC50 under setting [1] was 3.98 µM [falling, full curve].
As to `O=C(CC1N=C2c3ccccc3N=C(SCc3cccc(F)c3)N2C1=O)NC1CCCCC1` (stereo not given), under setting [1], the half-maximal activity concentration (AC50) is 1.26 µM [falling, single point].
Still for that read-out and setting: the result for `Cc1ccccc1OCCn1nc(C(=O)O)c2ccccc2c1=O` reads 39.8 µM [falling, single point]; that for `O=C(Cn1c(=O)n(Cc2ccco2)c(=O)c2sc3ccccc3c21)Nc1ccccc1C(F)(F)F`, 25.1 µM [rising, partial curve] [measured here: IkB-luc green channel]; that for `CCCc1[nH]nc2c1C(c1cn[nH]c1-c1ccc(F)cc1)C(C#N)=C(N)O2` (stereo not given), 12.6 µM [falling, partial curve].
`Cc1ccc(-n2nc(C)c3c(C)c(CCC(=O)NCc4ccccc4Cl)c(C)nc32)cc1`: the AC50 under setting [1] is 7.94 µM [falling, partial curve].
Same read-out and setting: the value for `CC(=O)NCCNC(=O)c1ccc2c(=O)n(CCc3ccccc3)c(=O)[nH]c2c1` was 0.501 µM [falling, full curve, poor fit]; that for `Fc1ccc(Cc2cn3cc(-c4ccc(F)cc4)nc3s2)cc1` was 39.8 µM [falling, single point]; that for `Cc1[nH]n(C(N)=S)c(=O)c1C(c1ccccc1)C(C#N)C#N` (stereo not given) was 31.6 µM [rising, partial curve] [measured here: IkB-luc green channel].
As to `COc1ccc(NC(=O)c2ccc3oc(=O)c(S(=O)(=O)c4ccc(F)cc4)cc3c2)c(OC)c1`, the AC50 under setting [2] was 15.8 µM [rising, partial curve] and the AC50 under setting [3] is 25.1 µM [falling, partial curve].
On to `COc1ccc(CC(=O)Nc2ccc(-c3nc4ccccc4s3)c(C)c2)cc1`, for which, under setting [1], the concentration at half-maximal activity (AC50) is 3.98 µM [rising, partial curve].
As to `Cc1cnc(NC(=O)c2ccc(-c3nc4ccccc4s3)o2)s1`, the AC50 under setting [1] is 25.1 µM [falling, partial curve].
As to `CCc1nnc(NC(=O)c2ccc(OC)cc2OC)s1`, the AC50 under setting [1] was 12.6 µM [falling, partial curve].
For the molecule `COC(=O)c1ccc(CSc2nc3ccncc3n2Cc2ccc(F)cc2)cc1`, the AC50 under setting [1] is 3.98 µM [falling, full curve].
Take `COc1ccc(-c2nnc(SCc3ccccc3)n2N)cc1`: the AC50 under setting [1] was 15.8 µM [falling, partial curve].
For the molecule `COCC(C)Nc1ncnc2c1cnn2-c1cccc(Cl)c1` (stereo not given), the AC50 under setting [1] was 15.8 µM [falling, partial curve].
For `Cc1ccc(Cl)cc1N1CCN(C(=O)c2cc(S(=O)(=O)N3CCCCC3)cn2C)CC1`, under setting [1], the half-maximal activity concentration (AC50) was 15.8 µM [falling, partial curve].
On to `O=c1cc(-c2ccccc2)[nH]n1-c1nc2ccccc2s1`, for which, under setting [1], the AC50 was 15.8 µM [falling, partial curve].
Regarding `COc1ccc2cc3c(N)nn(C(=O)c4ccc(F)cc4Cl)c3nc2c1`, the AC50 under setting [1] was 10 µM [falling, partial curve].
On to `COc1ccc(C(=O)NCC(c2ccc3c(c2)OCO3)N2CCN(C)CC2)cc1OC` (stereo not given), for which the AC50 under setting [1] was 31.6 µM [rising, single point] [measured here: IkB-luc green channel].
For the molecule `Cc1cc(NC(=O)CN2CCC(O)CC2)nc2c1c(=O)oc1ccccc12`, the AC50 under setting [1] was 20 µM [falling, partial curve].
For `COCCCNc1ncnc2nc[nH]c12`, under setting [1], the half-maximal activity concentration (AC50) is 2 µM [falling, full curve].
For `CCN1CCN(c2ncnc3c2cnn3-c2ccc(F)cc2)CC1`, under setting [1], the AC50 is 39.8 µM [falling, single point].
Still for that read-out and setting: the value for `O=C(Nn1c(-c2ccccc2)nc2ccccc2c1=O)c1ccco1` was 12.6 µM [falling, partial curve]; that for `Cc1cccc(NC(=O)CSc2nc(C)c(Cc3ccccc3)c(=O)[nH]2)c1C` was 20 µM [falling, partial curve].
Turning to `Cc1ccc(CNC(=O)c2cc(Sc3ccc(F)cc3F)nc3ccccc23)cc1`, the AC50 under setting [1] was 2.51 µM [falling, full curve, poor fit].
The same measure, in the same setting: the result for `CCC(C(=O)N(C)Cc1ccccc1)n1nc(C)c2sc3ccccc3c2c1=O` (stereo not given) reads 25.1 µM [falling, partial curve].
Turning to `CN(C)c1ccc(-c2noc(-c3ccccc3O)n2)cc1`, the AC50 under setting [1] was 0.00794 µM [falling, full curve].
The same measure, in the same setting: the value for `O=C(CSc1nncc2ccccc12)N1CCOCC1` was 25.1 µM [falling, single point]; that for `CCOC(=O)N1CCN(S(=O)(=O)N2CCCC(C(=O)NCc3ccccc3OC)C2)CC1` (stereo not given) was 12.6 µM [falling, partial curve, poor fit].
With `Cc1ccc2ccc3cc(C(=O)Nc4ccc(C)c(F)c4)nc3c2[nH]1`, the AC50 under setting [1] was 0.0251 µM [falling, full curve, poor fit].
The same measure, in the same setting: the result for `CCOC(=O)c1ccc(CN(Cc2ccc(F)cc2)S(=O)(=O)c2cc(C(=O)Nc3ccccc3CC)ccc2F)cc1` reads 3.98 µM [falling, full curve, poor fit]; that for `CSc1ccc(/C=C/c2nc3ccccc3n2S(=O)(=O)c2ccc(F)c(C)c2)cc1`, 3.16 µM [falling, partial curve]; that for `CCOc1ccc(NC(=O)CC2C(=O)N(c3cccc(C)c3)C(=O)N2CCC2=CCCCC2)cc1` (stereo not given), 20 µM [falling, single point].
Still for that read-out and setting: the value for `CCc1ccc(CN(Cc2ccco2)C(=O)c2ccc(C)cc2)cc1` was 25.1 µM [falling, single point]; that for `COc1ccccc1-c1cc(C(=O)NCc2ccc(Cl)cc2)no1` was 7.94 µM [falling, partial curve].
Consider `CCNc1nc(NC(C)C)nc(N(C#N)Cc2ccccc2)n1`, for which the AC50 is 15.8 µM [falling, partial curve] under setting [2] and 39.8 µM [falling, single point] under setting [3].
For the molecule `CC(=O)Nc1ccccc1-c1nc2ccccc2n(C(C)C(=O)Nc2cccc(C)c2C)c1=O` (stereo not given), the AC50 under setting [1] is 0.126 µM [rising, full curve].
As for `CC(=O)N(Cc1cccnc1)c1nc2cc(C)cc(C)c2s1`, the AC50 under setting [1] is 3.16 µM [rising, partial curve, poor fit].
On to `O=S(=O)(c1ccc(Cl)cc1)c1nnn2c1nc(NCc1ccccc1)c1sccc12`, for which the AC50 under setting [1] is 3.16 µM [falling, single point].
Regarding `CCc1ccc(C(=O)c2cn(CC(=O)Nc3cccc(C)c3C)c3nc(C)ccc3c2=O)cc1`, the AC50 under setting [1] was 3.98 µM [rising, single point] [measured here: IkB-luc green channel].
In the case of `CCOC(=O)N1CCc2c(sc(NC(=O)c3ccc(Cl)s3)c2C(N)=O)C1`, the AC50 by setting is: under setting [2], 31.6 µM [falling, single point]; under setting [3], 2 µM [falling, full curve].
In the case of `COc1ccccc1C(=O)N(Cc1ccco1)Cc1ccccc1F`, the AC50 under setting [1] was 31.6 µM [falling, single point].
Turning to `COc1ccc(N2CCN(C(=O)CCc3c(C)nc4cc(-c5cccc(F)c5)nn4c3C)CC2)cc1`, under setting [1], the half-maximal activity concentration (AC50) was 1 µM [falling, full curve].
The same measure, in the same setting: the value for `Cc1ccccc1C(=O)N1CCCCC1CCN1CCCCC1` (stereo not given) was 0.0631 µM [falling, single point].
As for `Cc1csc(NC(=O)c2cccc(S(=O)(=O)N3CCCCC3)c2)n1`, the AC50 under setting [1] is 20 µM [falling, partial curve].
